{"source": "patent US20240252581A1", "about": "(S.I.S. SHULOV INNOVATIVE SCIENCE LTD., priority 2021, published 2024)", "key": {"[1]": {"test": "general procedure: Fmoc solid-phase peptide synthesis; chlorotrityl chloride resin (CTC); HBTU/HOBT, DIPEA", "details": "purification step, sodium salt"}, "[2]": {"test": "general procedure: Fmoc solid-phase peptide synthesis; CTC; HBTU/HOBT, DIPEA", "details": "whole synthesis, scale of the general procedure CTC resin (125 gr), sodium salt (ZEP3Na, ZEP4Na)"}}, "note": "Square brackets hold non-standard residues; d marks the D form. pGlu = O=C1CC[C@@H](C(=O)O)N1", "data": [{"substance": "pGlu-Asn-Trp-Thr-ONa", "values": [{"measurement": "final HPLC purity", "setting": "[1]", "result": 97.5, "unit": "%"}, {"measurement": "step yield", "setting": "[1]", "result": 80, "unit": "%"}]}, {"substance": "pGlu-Asn-Trp-Lys(Octanoyl)-ONa", "values": [{"measurement": "final HPLC purity", "setting": "[1]", "result": 99.7, "unit": "%"}, {"measurement": "step yield", "setting": "[1]", "result": 71, "unit": "%"}]}, {"substance": "[pGlu]NWT-OH", "values": [{"measurement": "final HPLC purity", "setting": "[2]", "result": 97.3, "unit": "%"}]}]}
